Measurements: article doi:10.1101/2021.01.27.428547
Results are given in words; binding and its absence hold for the method and conditions named. Binding seen in cells or lysates may run through a third protein. Binding can be weak; no strength is given.

Sequences of proteins named here, by UniProt entry; tags and fusion partners are left off. A change or cut given only in a name is not applied to a line headed by its entry.
UniProt Q4F883: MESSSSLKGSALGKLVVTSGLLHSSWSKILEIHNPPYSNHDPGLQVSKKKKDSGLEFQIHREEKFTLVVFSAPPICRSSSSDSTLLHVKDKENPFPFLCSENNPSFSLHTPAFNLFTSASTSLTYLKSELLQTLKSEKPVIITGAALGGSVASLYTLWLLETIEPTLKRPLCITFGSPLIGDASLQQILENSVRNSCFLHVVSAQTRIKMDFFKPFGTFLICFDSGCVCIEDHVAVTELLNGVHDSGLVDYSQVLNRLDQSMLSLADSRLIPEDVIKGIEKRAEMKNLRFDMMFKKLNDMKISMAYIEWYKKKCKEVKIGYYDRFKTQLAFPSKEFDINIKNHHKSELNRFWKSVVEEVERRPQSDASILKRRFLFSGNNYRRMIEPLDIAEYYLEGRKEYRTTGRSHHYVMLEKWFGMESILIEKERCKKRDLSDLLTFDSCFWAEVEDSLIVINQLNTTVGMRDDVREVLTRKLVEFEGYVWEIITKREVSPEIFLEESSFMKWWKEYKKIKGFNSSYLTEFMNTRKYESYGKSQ
UniProt Q9SU72: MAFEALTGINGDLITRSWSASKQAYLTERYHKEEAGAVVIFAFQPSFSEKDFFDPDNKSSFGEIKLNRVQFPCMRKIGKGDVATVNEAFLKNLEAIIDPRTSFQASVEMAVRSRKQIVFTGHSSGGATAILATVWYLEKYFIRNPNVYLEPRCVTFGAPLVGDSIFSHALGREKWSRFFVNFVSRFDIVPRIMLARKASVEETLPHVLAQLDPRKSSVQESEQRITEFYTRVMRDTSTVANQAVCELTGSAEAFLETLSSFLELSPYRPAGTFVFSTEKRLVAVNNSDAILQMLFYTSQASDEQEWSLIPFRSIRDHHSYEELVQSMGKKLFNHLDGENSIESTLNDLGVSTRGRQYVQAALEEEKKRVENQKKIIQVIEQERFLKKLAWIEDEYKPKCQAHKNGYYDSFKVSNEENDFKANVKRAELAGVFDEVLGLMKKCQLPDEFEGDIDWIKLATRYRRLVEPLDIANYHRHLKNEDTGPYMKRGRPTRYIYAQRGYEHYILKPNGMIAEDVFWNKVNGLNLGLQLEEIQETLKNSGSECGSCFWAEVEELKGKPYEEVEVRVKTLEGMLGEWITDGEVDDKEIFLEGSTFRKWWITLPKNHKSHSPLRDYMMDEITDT

Biological target: SAG101-3FLAG (in A. thaliana) (A. thaliana) (UniProt Q4F883)
Assay: co-IP

## EDS1 (endogenous, A. thaliana) (from UniProt Q9SU72)
  binding: binds
